Substitutions are numbered along the chain they refer to. The list shows a part of the results.
B1: il2ra_site1_1z92_sap_20_mot_919c246ba0fc10ef4578bdc7f1052ff8_0001_af2_000000062_0001_37_52_H_._HHH_b1_07585_af2_0001_0000100004_0000001_0_0001 (protein)
chain: SSSDEERAEKNAEAIVRVLVRANRLSEEDEEKLQELAKELVERGVDQLEIIKILDEIAAQISSSS
B2: il2ra_site2_3nfp_sap_27_mot_HHH_b2_03087_000000007_0001_42_55_H_._ems_3hM_77_0001_0000400035_0000001_0_0001 (protein)
chain: SSSSDEEERAEELEEEIEKLLKEGDTYQAAQLIVELAELALKLNDPELVRAVLELYKLLKSSSSS
B3: il2ra_site1_2b5i_sap_30_mot_3e13e3ed3b6e195f81032bb5ce78c6bf_0001_1_af2_000000143_0001_17_32_H_._HHH_b1_06937_0001_0001200019_0000001_0_0001_af2pred_dldesign_0_ … (protein)
chain: SSSSDLRELVEALLAEAEELKAAGDLERAHKLLLLARRVARKADDPELVARVEARRAALGSSSSS
B4: il2ra_site1_1z92_sap_20_mot_2d21eb4e9c52d37fc3f75ebf2decd015_0001_1_af2_000000088_0001_37_51_H_._072deba08d558e8adcb5b16438222d5b_0001_0001_0000100007_0000001_0 … (protein)
chain: DHVAEQLREAVEKNDEELLREFIKIALEDAGDPRLVKQFLKDLVKRLGLPPEVLERLEELLEELT
B5: il2ra_site1_1z92_normal_mot_HHH_b1_02970_000000195_0001_43_56_H_._HHH_b1_05309_af2_0001_0000300028_0000001_0 (protein)
chain: SSSSSSDEDVERIMELFREAARIRDREEVRKLLEEALRLAEELGDEELRRDVEEYLRLLSSSSSS
B6: il2ra_site2_2erj_sap_19_mot_HHH_b1_02771_000000207_0001_1_20_H_._HHH_b1_04616_0001_0000400001_0000001_0_0001 (protein)
chain: SSSDMRRLYELLVRILRALAEGDPELAEELIEEARELIEELNSDTAREMLENLERLLEELRSSSS
B7: il2ra_site1_2b5i_normal_mot_22370d59370c406a0c205a431f537cfa_0001_af2_000000141_0001_1_31_H_._HHH_b1_02999_af2_0003_0000300026_0000001_0_af2pred_dldesign_0_af2p … (protein)
chain: SSSSKETAAAAAAIVEELEEKYGLTEEQYAALSRKAVELVWKGYSPEEIREILEAEAKKLSSSSS
B8: il2ra_site2_3nfp_normal_mot_HHH_b1_04537_af2_000000077_0001_1_18_H_._HHH_b2_05586_0001_0000500015_0000001_0 (protein)
chain: SSSSDREEAAQLLSEAFQLLQEGDPHEAEKLLEEAREIAEEAGDEQLLQAIEWALAAVKLYSSSS
B9: il2ra_site1_2b5i_sap_16_mot_HHH_b2_04373_af2_000000166_0001_1_14_H_._HHH_b1_00078_0001_0000500025_0000001_0_0001_af2pred_dldesign_0_af2pred (protein)
chain: SSSSSAARLARELFTKADEAYKAGEKEKAKELLEEALKIAEKNKMNTFIKIIKWALEEIKSSSSS
B10: il2ra_site1_1z92_normal_mot_HHH_b2_07758_000000290_0001_1_17_H_._HHH_b2_02649_0001_0000100014_0000001_0_af2pred_dldesign_0_af2pred (protein)
chain: SSSSSSGIDKAVRIAVEAAGLSAEDEERLRAEAKERLAKGMKKSDIYKWLNREASALAEKSSSSS
B11: il2ra_site1_1z92_sap_26_mot_HHH_b1_05862_af2_000000270_0001_22_38_H_._HHH_b1_08768_0001_0000100005_0000001_0_0001_af2pred_0001_af2pred (protein)
chain: SSSDERELTKFLSKLTARLRREFGLSKEQFEELARLILELLLKIPDPKEVEELAEEIAERLSSSS
B12: il2ra_site1_2b5i_sap_12_mot_HHH_b2_08262_af2_000000095_0001_1_15_H_._HHH_b2_06947_af2_0001_0000200004_0000001_0_0001_af2pred_dldesign_0_af2pred (protein)
chain: SSSSSLRREAIETVEALLKAGKTEEAKKVVDKLREYAEEKKDPALERLVEFLEEAIADALESSSS
B13: il2ra_site1_1z92_sap_13_mot_HHH_b1_01467_000000208_0001_22_39_H_._HHH_b2_01876_af2_0001_0001100084_0000001_0_0001_af2pred_0001_af2pred (protein)
chain: SSSSSSEEELEERVSELFTEAARIRDREEVRRLLEEALELAREANDPKLAEQVERFLKLLSSSSS
B14: il2ra_site2_2erj_sap_31_mot_HHH_b1_00941_000000060_0001_45_58_H_._HHH_b1_07953_0001_0000500014_0000001_0_0001 (protein)
chain: SSSSSDEEEIRRRVEELLERVEEIPDLHEIYRLLNEALRLAAELNDHELLKLIRELLERHSSSSS
B15: il2ra_site2_2erj_normal_mot_HHH_b2_01031_af2_000000243_0001_19_35_H_._HHH_b1_06980_0001_0000600020_0000001_0 (protein)
chain: SSSSDVEELLEEIEELLRRGDEERAEKLLHEAAELAFERRDFELFSEVAELAHLIARLEVSSSSS
B16: il2ra_site2_2erj_sap_24_mot_HHH_b2_08311_000000151_0001_42_56_H_._HHH_b2_04441_af2_0001_0000200011_0000001_0_0001 (protein)
chain: SSSSDELRKLFELANRVLHLLARGDEEEVKEVLEELERLAKELDSPNAEEIAEHLKRLVDSSSSS
B17: il2ra_site1_2b5i_normal_mot_HHH_b2_06044_000000134_0001_1_20_H_._HHH_b2_00272_af2_0001_0000100003_0000001_0_af2pred_dldesign_0_af2pred (protein)
chain: SSSSSDPHQEVWDLFKKALELWRQGKKEEAKKLLEEALKVAEKLKDEVAVADIKRFLELLSSSSS
B18: il2ra_site1_1z92_sap_21_mot_3afbd42359c492d9a5ba12d7e5b15de5_0001_000000167_0001_17_33_H_._HHH_b2_00708_af2_0001_0000100006_0000001_0_0001 (protein)
chain: DEEIQRLLREILEEVLGDPELAERELRIIEELAGGDPRRVARIVERLLRAAGDPEATKKVEELLK
B19: il2ra_site2_2erj_sap_9_mot_HHH_b1_07584_000000201_0001_42_55_H_._HHH_b1_04993_af2_0001_0000100002_0000001_0_0001 (protein)
chain: NDEAMVELFIEYVAERAGIPSIEVSVSNGEIEVRINGNDEAARRVEESARHVAKALGLEVEVEVE
B20: il2ra_site2_2erj_sap_25_mot_HHH_b1_08106_000000120_0001_20_37_H_._HHH_b2_06103_0001_0000100007_0000001_1_0001 (protein)
chain: SSSDEEEEELRELLEEVEKLIKEGNPEEAAEVLNKALHLAIRLNDVEVYQLARELYELLDNSSSS
B21: il2ra_site1_1z92_normal_mot_07d2d8a42fb0c6931fb03626c2a0eeb8_0001_000000072_0001_36_50_H_._d81e0e3f09cf5c77236f12665c7b432d_0001_0001_0000500049_0000001_0_af2pr … (protein)
chain: DDFAVEQIIRKLEKGNPRAAKRLLEKLAKLAGIPPEEIEEVLREVEELLKRDPEEAKEFLKRILS
B22: il2ra_site2_2erj_sap_24_mot_4428453eb85d3cbdb794fa6b82d21c19_0001_000000044_0001_14_30_H_._HHH_b2_00328_0001_0000300019_0000001_0_0001 (protein)
chain: SSSSDELHRLYELANEILHALSRGDEELVEELLEELEKLAEEADSRVAKENVEALRKHLDSSSSS
B23: il2ra_site2_3nfp_sap_13_mot_HHH_b1_06513_000000089_0001_42_55_H_._HHH_b2_04995_0001_0000100014_0000001_0_0001_af2pred_0001_af2pred (protein)
chain: SSSSDRRFERAVKTALRLARELSKEDPELAKEALHFAESVARMGNDPELEELVEEVQEELDSSSS
B24: il2ra_site2_3nfp_normal_mot_HHH_b2_08245_af2_000000201_0001_41_55_H_._HHH_b2_03234_af2_0001_0000100013_0000001_1_af2pred_0001_1_af2pred_swapped (protein)
chain: SSSSDEEEEAEEEVREALKRGDDERARRVVRELALEAAEKNDHELFALASELLELILKLERSSSS
B25: il2ra_site2_3nfp_normal_mot_HHH_b2_06897_000000042_0001_40_57_H_._HHH_b1_01654_0001_0000300026_0000001_0 (protein)
chain: SSSSDREEELKELLEELERLVEEGDPEEVKRLAREISELVYKYNDHEAFALLNEILARFFKSSSS
B26: il2ra_site2_2erj_normal_mot_HHH_b1_06078_000000236_0001_23_39_H_._HHH_b2_02522_0001_0000400024_0000001_0 (protein)
chain: SSSSDTFEEFAEEVERLARQLEERGDPEQARKAVESALFYAKALNSEEAEEILRELLEELSSSSS
B27: il2ra_site1_2b5i_normal_mot_HHH_b2_04910_000000118_0001_1_19_H_._HHH_b2_06534_0001_0000200010_0000001_0_af2pred_0001_af2pred_1 (protein)
chain: SSSSSTKELRELLREANELFHNGNPEEAEKVLEEAEKLAEELGSRSARRLVEKMLELLRKSSSSS
B28: il2ra_site2_3nfp_sap_17_mot_HHH_b2_03068_000000215_0001_43_56_H_._HHH_b1_00872_0001_0000600027_0000001_0_0001 (protein)
chain: SSSDETKERVEELLREVEKLIEEGNEEEAERVLLEAALVASEGRDREAFMKVNELLARLARSSSS
B29: il2ra_site1_2b5i_normal_mot_a7d4ab743ae57deeac5d741f7278d18b_0001_af2_000000162_0001_36_49_H_._HHH_b2_04392_af2_0001_0000400026_0000001_0_af2pred_dldesign_0_af2 … (protein)
chain: SSSSSVLARKILKLAKKSMRRALAEGDEAAAADVTAAALAELRALGDEAAVAALEAFAASLSSSS
B30: il2ra_site2_2erj_normal_mot_HHH_b2_02500_af2_000000175_0001_19_35_H_._HHH_b1_03967_0001_0000200020_0000001_0 (protein)
chain: SSSSSDLLERAYELADLLLHLVSRNDREEFEEISREFEEIVERLQSENAREILENLEEELSSSSS
B31: il2ra_site1_1z92_sap_15_mot_HHH_b2_07916_000000165_0001_23_39_H_._HHH_b2_01633_af2_0001_0000200013_0000001_0_0001_af2pred_0001_af2pred_1 (protein)
chain: SSSSSSDELEEIVREIVEEFGLSEEDEKLLERDAEHAEKNGISDKSIERVLRDAAKRLSSSSSSS
B32: il2ra_site1_2b5i_sap_17_mot_HHH_b1_01540_000000292_0001_42_56_H_._HHH_b2_02924_af2_0001_0000200025_0000001_0_0001_af2pred_dldesign_0_af2pred (protein)
chain: SPEELLARLEEEYKDNPVAQEFINALRTLYEHFGDPELAIRSLLKLAKKAGDEEIAALAERALLE
B33: il2ra_site2_2erj_sap_20_mot_HHH_b2_06646_af2_000000081_0001_19_36_H_._ems_3hM_1437_0001_0000300025_0000001_0_0001 (protein)
chain: SSSSSHEEEVEELLEKAKEAYERGDLHLVYRLMVEALRVASEHQDDELQREIAEFVEELSSSSSS
B34: il2ra_site1_3nfp_normal_mot_HHH_b1_06312_000000077_0001_1_18_H_._HHH_b2_05775_af2_0001_0000100005_0000001_0_af2pred_0001_af2pred (protein)
chain: SSSSSSVHELRRLLEEALRLFRNGDPEEAEKVLEQAREIAEELGSELALRLVELAKKLVSSSSSS
B35: il2ra_site2_3nfp_sap_13_mot_HHH_b1_04644_af2_000000261_0001_42_57_H_._HHH_b2_04983_af2_0001_0000500031_0000001_0_0001 (protein)
chain: B25 chain with K30R, Y41W, L51A, R58K, F59H, F60Y, K61R
B36: il2ra_site1_1z92_sap_13_mot_HHH_b1_00697_000000055_0001_1_18_H_._HHH_b2_06296_0001_0000600021_0000001_0_0001 (protein)
chain: DEEDALRLAAEIAAKAAGVDSFEVEVSNGKLTLTVEGDEHLAEVIRKAVERFFEFFGVDVEVTYE
B37: il2ra_site1_1z92_sap_22_mot_HHH_b1_01245_000000029_0001_23_39_H_._HHH_b1_02889_af2_0001_0000100004_0000001_0_0001_af2pred_0001_af2pred (protein)
chain: ADEETVREHVESFAKFAGVPSVEVTSENGKFSVELEGDDDHARSAAKLIEKSAKVAGIDLEVEIE

molecular target: il2ra, P01589; assay: yeast display titration

Apparent Kd, inactive:
B1 no binding seen
B2 no binding seen
B3 no binding seen
B4 no binding seen
B5 no binding seen
B6 no binding seen
B7 no binding seen
B8 no binding seen
B9 no binding seen
B10 no binding seen
B11 no binding seen
B12 no binding seen
B13 no binding seen
B14 no binding seen
B15 no binding seen
B16 no binding seen
B17 > 1.56 nM
B18 no binding seen
B19 no binding seen
B20 no binding seen
B21 no binding seen
B22 no binding seen
B23 no binding seen
B24 no binding seen
B25 no binding seen
B26 no binding seen
B27 no binding seen
B28 no binding seen
B29 no binding seen
B30 no binding seen
B31 no binding seen
B32 no binding seen
B33 no binding seen
B34 no binding seen
B35 no binding seen
B36 no binding seen
B37 no binding seen

A stretch of the results above, as a working copy:
Apparent Kd, inactive:
B30 no binding seen
B31 no binding seen
